The text below walks through data of PMC7819943, “Rice protein-binding microarrays: a tool to detect cis-acting elements near promoter regions in rice”.

Some of the results follow.

For this assay, the target named is T1, OsSMF1 (Oryza sativa, UniProt Q6ZLB0 1-436).
T1 sequence: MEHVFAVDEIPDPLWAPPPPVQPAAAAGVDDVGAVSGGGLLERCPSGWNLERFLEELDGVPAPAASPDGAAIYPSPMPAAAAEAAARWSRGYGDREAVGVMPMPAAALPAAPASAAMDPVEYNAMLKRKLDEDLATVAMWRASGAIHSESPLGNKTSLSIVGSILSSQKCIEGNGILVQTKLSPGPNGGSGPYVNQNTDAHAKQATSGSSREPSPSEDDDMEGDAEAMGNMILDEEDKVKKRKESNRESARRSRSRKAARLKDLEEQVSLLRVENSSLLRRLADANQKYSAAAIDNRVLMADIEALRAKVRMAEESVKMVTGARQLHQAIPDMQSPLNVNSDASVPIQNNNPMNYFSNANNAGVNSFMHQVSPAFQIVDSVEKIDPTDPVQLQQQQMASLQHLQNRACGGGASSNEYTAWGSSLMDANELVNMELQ
The assay can be described thus: protein-binding microarray (RPBM); PBS, 2% BSA, 51.3 ng/ul salmon testes DNA, 50 uM zinc acetate, 200 nM TF, 25 C, 1 h; high values mean tight binding. Particulars: protein: recombinant; tags: N-terminal polyhistidine and DsRed monomer fusion (pET32a); chain copies: 2; label: CyDye5-dUTP incorporated in the synthesized complementary strand; 3' TTTTT single-stranded linker to array surface; dsDNA, one strand shown. A digest of the protocol:
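The binding signal is fluorescence intensity per array feature (arbitrary units). Readings came from an Axon 4000B scanner after a washed, 2% BSA-blocked, double-stranded custom Agilent array had been incubated for 1 h at 25 °C with 200 nM protein and 50 µM zinc acetate. The protein was a Ni–NTA-purified transcription factor fused N-terminally to polyhistidine and DsRed, expressed in E. coli BL21-CodonPlus.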
As for “GCTAGTTCATCCTGTCGCCAACGTGCCAGTCTCTGTCTGACGGAGTCACCTAGTGCAG”, the binding signal was 3770 fluorescence intensity (a.u.).
With “GGAAGTTGCTACGTACCGACGCCAGCTGGACTTTGTACTCCGGAGTCACCTAGTGCAG” the figure was 3420 fluorescence intensity (a.u.); with “GAATTGGGCCGAACGATCTACGTGGGCCGAATTGGGCCCACGGAGTCACCTAGTGCAG”, 3870 fluorescence intensity (a.u.); with “AGTTCATTATCATCATGTAATGAATCATCATGAATCCAAACGGAGTCACCTAGTGCAG”, 3280 fluorescence intensity (a.u.).
For “TGCGGATCTAATTGCCACGTAAGCGCCACGACAATGACACCGGAGTCACCTAGTGCAG” the value was 16800 fluorescence intensity (a.u.); for “ACACATGTTATAGACACGTGTGGACCCACATGTTATTGAGCGGAGTCACCTAGTGCAG”, 7440 fluorescence intensity (a.u.); for “AGCAGCGGTGGCTGTGGCGATACGTGGCAGGAGTGGCAACCGGAGTCACCTAGTGCAG”, 11900 fluorescence intensity (a.u.).
With “AATGACAGACACGCCGCATCGCCCCTCGTTGGGCCGCCACCGGAGTCACCTAGTGCAG” the figure was 3170 fluorescence intensity (a.u.); with “ACGGCCCAAGCCAAGCACACGTCAACAAGTCTCGCGTTTCCGGAGTCACCTAGTGCAG”, 7360 fluorescence intensity (a.u.).
“GAGCTCTACGGCGACGTCGTGCTCCGCTTCGTCAGCCACCCGGAGTCACCTAGTGCAG”: the binding signal is 3360 fluorescence intensity (a.u.).
With “GAGACGACTCGCCGACCACCGTCCGTTCTACCTATAAATCCGGAGTCACCTAGTGCAG” the figure was 3740 fluorescence intensity (a.u.).
Turning to “ATAATGGTTAACTTACACACTCTGCATCAGTGATCCTGGTCGGAGTCACCTAGTGCAG”, the binding signal is 3790 fluorescence intensity (a.u.).
With “ATGGGATGCGAAGGAGACGTTGCCACGTTGGACGTGTGCACGGAGTCACCTAGTGCAG” the figure was 13900 fluorescence intensity (a.u.); with “ATTCATAGATCAGTGAATGTAGTGTATGAAGTTATAGTGGCGGAGTCACCTAGTGCAG”, 4350 fluorescence intensity (a.u.).
With “TTGAATCCTCATCATCATCGCCTTAATTGCATCGGTTAATCGGAGTCACCTAGTGCAG” the figure was 3240 fluorescence intensity (a.u.).
For “ACTCATGCGGCCTTGGGAGTTCAGGGTGCAATGACGCATACGGAGTCACCTAGTGCAG”, the binding signal was 4820 fluorescence intensity (a.u.).
Consider “CCAAGCCTTCTGCTTGTGATTTGAACCTTCAGTGGGTACCCGGAGTCACCTAGTGCAG”, for which the binding signal was 24300 fluorescence intensity (a.u.).
On to “TTAACTTCAACAGCCCAACCCACGGTAGCTCTTTTAGGTGCGGAGTCACCTAGTGCAG”, for which the binding signal is 24400 fluorescence intensity (a.u.).
With “CTAACACGTGACACACAGCGGGCACGTCACCCAAACGGGCCGGAGTCACCTAGTGCAG” the figure was 13900 fluorescence intensity (a.u.).
Regarding “ATCTCGCCTCCACGTCCTCGTCGCTCACAACGCGACACACCGGAGTCACCTAGTGCAG”, the binding signal was 6670 fluorescence intensity (a.u.).
For “CCTCCCCTGGTGAGAGAGAGCATAGTCACTACACCAACACCGGAGTCACCTAGTGCAG” the value was 3200 fluorescence intensity (a.u.).
With “ACCGGCTGCCTCTGTCGACACGCCGCCAGCCTGCAGCCGTCGGAGTCACCTAGTGCAG” the figure was 4370 fluorescence intensity (a.u.).
With “CCTCCCGCCACGGTCACTACACACGTCGTAGTAGTGTAGTCGGAGTCACCTAGTGCAG” the figure was 4000 fluorescence intensity (a.u.); with “TCATCAATTCCGGTGAGGATATCGCCGGATCGACGCGCCGCGGAGTCACCTAGTGCAG”, 26300 fluorescence intensity (a.u.); with “GACAGAATTAGCCCACGTGACAGGGCATAATTAATATATACGGAGTCACCTAGTGCAG”, 3320 fluorescence intensity (a.u.).
As to “CTCTACGTACACGAAACTTCCAACACGTAGTCGCCTTAACCGGAGTCACCTAGTGCAG”, the binding signal was 4020 fluorescence intensity (a.u.).
With “GAGGGAAAGAGATGCAAATTGCACCCTTCATGAATCATCCCGGAGTCACCTAGTGCAG”, the binding signal is 11000 fluorescence intensity (a.u.).
“GGTGCGGCCCATGACTCGGCCCAGTTCTGTGTTAGGCCTCCGGAGTCACCTAGTGCAG”: the binding signal is 3880 fluorescence intensity (a.u.).
With “TGGAGTAAACGATGAATACATGTTATAATAGTGTAGATTGCGGAGTCACCTAGTGCAG” the figure was 65100 fluorescence intensity (a.u.).
For “CCACCACAGGCTGACGCCCGCGCCGGCCACAGCTAGCGCGCGGAGTCACCTAGTGCAG” the value was 3170 fluorescence intensity (a.u.).
Consider “CGCCCTCATCTTTGTATGACTCATACACACTGCCCATCAGCGGAGTCACCTAGTGCAG”, for which the binding signal was 10500 fluorescence intensity (a.u.).
On to “TGGGCTCGTGTTAAGGAGTGATAATTCTTGACGATAAACTCGGAGTCACCTAGTGCAG”, for which the binding signal was 3650 fluorescence intensity (a.u.).
Take “CACCGCCGCCGCCCAACTCCAATTCTTCCACCGCTTGTGTCGGAGTCACCTAGTGCAG”: the binding signal is 3350 fluorescence intensity (a.u.).
As for “CCACCTCTAATGAAGAGGTGATTGCAACCATTCATCTCTTCGGAGTCACCTAGTGCAG”, the binding signal was 3680 fluorescence intensity (a.u.).
For “GCGACGGTGTTCGACGACAACTACGTGGCAACATATGGTGCGGAGTCACCTAGTGCAG” the value was 6540 fluorescence intensity (a.u.); for “ATCAACGGTGAGATTATAGCATGCCACGTGGCAACCTAAGCGGAGTCACCTAGTGCAG”, 30400 fluorescence intensity (a.u.); for “CGCCATCGATGCGTGACCACCGAGCTCGCCTCGTCCACACCGGAGTCACCTAGTGCAG”, 3250 fluorescence intensity (a.u.).
With “ACCCACATGTCATTGACTCATATGGGTCATACATGTCATTCGGAGTCACCTAGTGCAG”, the binding signal is 9460 fluorescence intensity (a.u.).
For “ACGGATCACGTACACATGCGTACGTGTCTCATCCCCGGACCGGAGTCACCTAGTGCAG”, the binding signal was 9710 fluorescence intensity (a.u.).
As for “GCCGCTTCTTCCGCGCATGCGTCGTGATCTCACGTCCTCTCGGAGTCACCTAGTGCAG”, the binding signal was 3680 fluorescence intensity (a.u.).
With “TTGTCTAACGTGGTGCACGCGTGGCAATCCAGTTAGCATTCGGAGTCACCTAGTGCAG” the figure was 10500 fluorescence intensity (a.u.).
Take “GGATCCTTTGACATGTAGATGCCACCGTGGCATGCCACGTCGGAGTCACCTAGTGCAG”: the binding signal was 13900 fluorescence intensity (a.u.).
